Data from patent US20080125488A1, “Lactate Containing Pharmaceutical Composition and Uses Thereof” (priority 2003, published 2008).
The amount applied is not stated for every result.

Tested on: patients suffering from brain injury (brain trauma) with increased intracranial pressure
Test: Treatment of increased intracranial pressure caused by brain trauma
Type: in vivo, human
Protocol: For this purpose, the composition of the invention or the mannitol was administered (infused) to a group of each twelve patients and the ICP was measured every 15 minutes.
The results of this study, in which 12 patients were either treated with mannitol or the hypertonic lactate solution of the invention, are shown in FIGS. 1 to 4 as well as in Tables 2 to 5.

Question: For `OC[C@@H](O)[C@@H](O)[C@H](O)[C@H](O)CO` [mannitol], which “hematocrite and hemoglobin level relative to original values” (after infusion (FIG. 3)) is on record?
Answer: 97%

Question: And the “Osmotic Pressure after treatment” value (after treatment)?
Answer: 302 ± 2.5 mosm/kg
